Assay results as given in paper PMC4870678.

Molecular target: T1, Ycf4 (UniProt P56788)
T1 sequence: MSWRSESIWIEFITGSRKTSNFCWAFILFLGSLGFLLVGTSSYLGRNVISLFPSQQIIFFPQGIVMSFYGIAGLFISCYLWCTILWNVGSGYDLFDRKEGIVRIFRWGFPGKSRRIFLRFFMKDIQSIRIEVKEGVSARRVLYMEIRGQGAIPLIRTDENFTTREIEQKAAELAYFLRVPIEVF
Assay: two-hybrid; split-ubiquitin yeast two-hybrid (SUY2H); baits as Cub-PLV fusions (pMetYCgate), preys (CC1, CC2 of Ycf1) as Nub fusions (pNXgate32), cotransformed into yeast strain THY.AP4; interaction selected on synthetic medium lacking Leu, Trp and His

CC1 domain of the Ycf1 protein (Arabidopsis thaliana) (domain or fragment)
binding: binds

CC2 domain of the Ycf1 protein (Arabidopsis thaliana) (domain or fragment)
binding: binds

No constants are given. Whether binding was seen depends on the method and setting. Binding can be weak; no strength is given.
